Reference: PMC11035541
These are yes or no findings as the source states them, for the method shown. Binding seen in cells or lysates may run through a third protein. Some entries that bind do so weakly or less than the wild type.

Protein sequences, listed by entry. Tags and fused reporters are not part of them.
UniProt P21554: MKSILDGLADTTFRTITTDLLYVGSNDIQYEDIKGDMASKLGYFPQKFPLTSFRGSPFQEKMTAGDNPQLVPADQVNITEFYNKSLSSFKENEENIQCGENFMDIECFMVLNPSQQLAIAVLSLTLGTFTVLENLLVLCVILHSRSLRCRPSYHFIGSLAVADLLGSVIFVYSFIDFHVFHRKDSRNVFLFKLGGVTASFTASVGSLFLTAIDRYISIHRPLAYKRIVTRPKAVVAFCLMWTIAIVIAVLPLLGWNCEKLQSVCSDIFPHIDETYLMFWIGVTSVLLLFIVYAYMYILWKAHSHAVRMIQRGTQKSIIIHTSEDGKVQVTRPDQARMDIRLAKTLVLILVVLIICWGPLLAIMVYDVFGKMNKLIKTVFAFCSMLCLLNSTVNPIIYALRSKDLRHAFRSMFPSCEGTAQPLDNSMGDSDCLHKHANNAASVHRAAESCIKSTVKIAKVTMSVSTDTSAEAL
UniProt P35626: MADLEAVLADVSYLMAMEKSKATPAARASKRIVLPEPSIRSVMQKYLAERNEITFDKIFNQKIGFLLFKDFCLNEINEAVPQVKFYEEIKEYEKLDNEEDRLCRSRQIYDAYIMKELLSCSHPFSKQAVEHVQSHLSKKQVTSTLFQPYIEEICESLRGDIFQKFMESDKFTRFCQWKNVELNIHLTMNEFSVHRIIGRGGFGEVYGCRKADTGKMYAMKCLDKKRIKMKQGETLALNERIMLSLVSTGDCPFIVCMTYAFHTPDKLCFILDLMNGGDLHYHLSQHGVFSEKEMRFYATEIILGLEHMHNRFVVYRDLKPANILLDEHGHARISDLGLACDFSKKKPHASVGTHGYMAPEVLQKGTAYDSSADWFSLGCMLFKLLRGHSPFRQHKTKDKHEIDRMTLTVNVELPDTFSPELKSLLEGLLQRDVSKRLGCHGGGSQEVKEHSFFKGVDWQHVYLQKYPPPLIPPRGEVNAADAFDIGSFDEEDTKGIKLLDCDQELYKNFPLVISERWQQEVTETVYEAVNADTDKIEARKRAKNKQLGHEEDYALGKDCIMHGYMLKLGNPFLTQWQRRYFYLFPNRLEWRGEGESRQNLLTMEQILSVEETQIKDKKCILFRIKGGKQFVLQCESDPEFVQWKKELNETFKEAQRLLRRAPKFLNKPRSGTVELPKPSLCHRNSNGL
UniProt P32121: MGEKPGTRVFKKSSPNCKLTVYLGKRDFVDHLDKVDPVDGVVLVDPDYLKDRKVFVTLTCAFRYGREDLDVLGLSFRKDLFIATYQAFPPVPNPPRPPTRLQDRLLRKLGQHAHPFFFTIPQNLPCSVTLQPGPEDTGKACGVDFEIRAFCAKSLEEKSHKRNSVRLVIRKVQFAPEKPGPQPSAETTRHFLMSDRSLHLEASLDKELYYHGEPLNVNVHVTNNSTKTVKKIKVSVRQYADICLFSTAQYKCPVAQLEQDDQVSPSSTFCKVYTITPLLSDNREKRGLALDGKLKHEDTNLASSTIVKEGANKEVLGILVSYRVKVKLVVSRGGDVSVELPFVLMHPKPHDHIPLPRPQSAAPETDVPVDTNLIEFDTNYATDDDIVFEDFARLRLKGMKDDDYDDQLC

Target: cannabinoid receptor 1 fused to EYFP (CB1R-EYFP) (UniProt P21554)
Assay: FRET or BRET; living HEK293 cells co-transfected with GRK3-Rluc8 or β-arrestin2-Rluc (donor) and CB1R-EYFP (acceptor), 1:2; Tyrode's solution pH 7.4, 37 °C; 5 µM coelenterazine h; increasing concentrations of (9S)-HHC, (9R)-HHC or WIN; read 12 min after addition; ΔBRET against vehicle

binding	Substance
binds	G protein-coupled receptor kinase 3 fused to Rluc8 (GRK3-Rluc8) (from UniProt P35626 1-688) (enzyme)
binds	β-arrestin2 fused to Rluc (β-arrestin2-Rluc) (from UniProt P32121 1-409)
